PMC7997971
These are yes or no findings as the source states them, for the method shown. Where a sequence is shown, tags or fusion partners need not be part of it.

Biological target: T1, amino-terminal domain of CHC2 (clathrin heavy chain 2), GAL4 BD fusion (Arabidopsis thaliana) (UniProt Q0WLB5)
T1 sequence: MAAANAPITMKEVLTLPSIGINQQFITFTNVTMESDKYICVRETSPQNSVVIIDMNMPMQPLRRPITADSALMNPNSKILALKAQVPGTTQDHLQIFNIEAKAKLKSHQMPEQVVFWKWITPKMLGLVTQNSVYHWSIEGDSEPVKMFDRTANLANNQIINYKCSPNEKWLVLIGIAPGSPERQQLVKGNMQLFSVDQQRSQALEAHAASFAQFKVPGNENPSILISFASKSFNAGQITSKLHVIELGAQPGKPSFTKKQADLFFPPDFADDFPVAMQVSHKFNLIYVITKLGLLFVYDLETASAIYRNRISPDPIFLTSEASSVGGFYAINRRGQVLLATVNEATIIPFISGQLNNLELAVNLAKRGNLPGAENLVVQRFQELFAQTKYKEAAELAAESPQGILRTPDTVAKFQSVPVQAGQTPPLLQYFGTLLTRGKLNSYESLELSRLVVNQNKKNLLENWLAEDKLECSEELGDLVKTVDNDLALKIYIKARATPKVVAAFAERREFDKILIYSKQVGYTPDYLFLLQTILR
Test: two-hybrid; GAL4 AD fusions of AP large subunits against GAL4 BD-CHC2 NTD in S. cerevisiae AH109; growth on medium lacking Leu, Trp, His and adenine, 4 days at 30 °C; five independent colonies

B1: AP4E (epsilon subunit of AP-4), GAL4 AD fusion (protein, UniProt Q8L7A9 1-938)
chain: MEQLKTIGRELAMGSQGGFGQSKEFLDLVKSIGEARSKAEEDRIVLSEVDILKRRLLEPDIPKRKMKEYIIRLVYIEMLGHDASFGYIYAVKMTHDDNLLLKRTGYLAVTLFLNEDHDLIILIVNTIQKDLRSDNYLVVCAALNAICRLINEETIPAVLPQVVELLNHQKEAVRKKAIMALHRFHRKSPSSVSHLVSNFRKRLCDNDPGVMGATLCPLFDLISEDVNSYKDLVSSFVSILKQVTERRLPKSYDYHQMPAPFIQIKLLKIMALLGSGDKNASDIMSMVLGDLFRKCDSSTNIGNAILYECIRCISCILPNPKLLEAAADAISKFLKSDSHNLKYMGIDGLGRLIKISPDIAEQHQLAVIDCLEDPDDTLKRKTFELLYKMTKSSNVEVIVDRMIDYMISINDNHYKTEIASRCVELAEQFAPSNQWFIQIMNKVFEHAGDLVNIKVAHNLMRLIAEGFGEDDDDADSKLRLSAVESYLQLISEPKLPSLFLQVISWVLGEYGTADGKYSASYISGKLCDVADAYSSDETVKGYAVSALMKIYAFEIASGRKVDVLPECQSLIEELLASHSTDLQQRAYELQALLALDARAVETILPLDASCEDIEVDKDLSFLNGYIQQAIESGAQPYISERERSGMFETTDYHPQDHHEVPTHALRFEAYELPKPSVPPQASNELVPVPEPSYYSESHQPISTSLVSERESSEIKLRLDGVKQKWGRPSYQSTTAASSTTPQAANGISTHSDAGVGSSSSKPRSSYEPKKPEIDPEKQRLAASLFGGSSSRTDKRSSSGGHKPAKGTANKTATVPKENQTPVQPPPDLLDFGEPTATTATAMDPFKELEGLMDSSSQDGGSSDVMGLYSDAAPVTTTTSVDSLLSELSDSSKGNSRTYQPQTSKGPNTKEALEKDALVRQMGVNPTSQNPTLFKDLLG
- binding: no binding
